Consider one molecule from publication PMC6707942.

Sequences of proteins named here, by UniProt entry; tags and fusion partners are left off.
UniProt Q03135: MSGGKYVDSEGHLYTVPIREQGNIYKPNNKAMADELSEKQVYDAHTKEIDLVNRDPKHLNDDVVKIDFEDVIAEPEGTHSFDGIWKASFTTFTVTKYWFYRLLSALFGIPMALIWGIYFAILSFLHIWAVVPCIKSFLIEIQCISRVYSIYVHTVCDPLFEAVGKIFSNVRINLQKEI

These are yes or no findings as the source states them, for the method shown. In cells and extracts the contact can be indirect. Sequences can lack the tags named with a protein.

In this test the target is caveolin-1 (human (endogenous in DU-145)) (UniProt Q03135). The test can be described thus: proximity ligation; DU-145 cells treated with His-MDA-7/IL-24 for 30 min, fixed; Duolink PLA kit; primary antibodies (anti-MDA-7/IL-24 and anti-clathrin or anti-caveolae) overnight at 4 °C; signals seen by fluorescence microscope; only the binder purified.

B1: His-tagged recombinant MDA-7/IL-24 (ligand, UniProt Q13007 52-206)
chain: QEFHFGPCQVKGVVPQKLWEAFWAVKDTMQAQDNITSARLLQQEVLQNVSDAESCYLVHTLLEFYLKTVFKNYHNRTVEVRTLKSFSTLANNFVLIVSQLQPSQENEMFSIRDSAHRRFLLFRRAFKQLDVEAALTKALGEVDILLTWMQKFYKL
With B1, the binding entry is “no binding”.
